Laboratory results from patent publication US20100240774A1, “USE OF HYDROPHOBIN POLYPEPTIDES AS PENETRATION ENHANCERS” (BASF SE, priority 2007, published 2010).

Experiment: absorption and binding of hair tint dyes by hydrophobin treated hair
Details: hair incubated 1 hour at 32° C. with 0.01 to 0.2 percent by weight hydrophobin, then tinted and repeatedly washed; particularly first test variation

B1: hydrophobin A: fusion hydrophobin, SEQ ID NO: 20 from WO2007/14897 and herein (yaad-Xa-dewA-his) (protein)
chain: MAQTGTERVKRGMAEMQKGGVIMDVINAEQAKIAEEAGAVAVMALERVPADIRAAGGVARMADPTIVEEVMNAVSIPVMAKARIGHIVEARVLEAMGVDYIDESEVLTPADEEFHLNKNEYTVPFVCGCRDLGEATRRIAEGASMLRTKGEPGTGNIVEAVRHMRKVNAQVRKVVAMSEDELMTEAKNLGAPYELLLQIKKDGKLPVVNFAAGGVATPADAALMMQLGADGVFVGSGIFKSDNPAKFAKAIVEATTHFTDYKLIAELSKELGTAMKGIEISNLLPEQRMQERGWRSIEGRMRFIVSLLAFTAAATATALPASAAKNAKLATSAAFAKQAEGTTCNVGSIACCNSPAETNNDSLLSGLLGAGLLNGLSGNTGSACAKASLIDQLGLLALVDHTEEGPVCKNIVACCPEGTTNCVAVDNAGAGTKAEGSHHHHHH
modifications: basf-yaad-Xa-dewA-his fusion of Bacillus subtilis yaaD and N-terminal factor Xa proteinase cleavage site and Aspergillus nidulans hydrophobin dewA and his6
**Q.** For B1, which “binding and dye absorption of hair tint” value is on record?
**A.** increased binding and dye absorption

B2: hydrophobin B: fusion hydrophobin, SEQ ID NO: 26 from WO2007/14897; SEQ ID NO: 36 herein (yaad40-Xa-dewA-his) (protein)
chain: MAQTGTERVKRGMAEMQKGGVIMDVINAEQAKIAEEAGAVIEGRMRFIVSLLAFTAAATATALPASAAKNAKLATSAAFAKQAEGTTCNVGSIACCNSPAETNNDSLLSGLLGAGLLNGLSGNTGSACAKASLIDQLGLLALVDHTEEGPVCKNIVACCPEGTTNCVAVDNAGAGTKAEGSHHHHHH
modifications: fusion protein yaad40-Xa-dewA-his
**Q.** For B2, which “binding and dye absorption of hair tint” value is on record?
**A.** increased binding and dye absorption
